Laboratory results: PubChem BioAssay AID504786 (Drosophila RNAi Screening Center, 2011)

- Aim: 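Fly genes required for HIF-dependent transcription when hypoxia is mimicked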 (primary screen)
- System: Drosophila S2 cells with a stable HIF luciferase reporter
- Knock-down reagent: long dsRNA against Drosophila genes, about 0.2 µg dsRNA per well of a 384-well plate
- Time to read-out: three days of knock-down, then 20 h of DFO before reading
- Challenge: desferrioxamine (DFO) at 100 µM, an iron chelator that mimics hypoxia, for 20 h
- Detection: 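HIF reporter luminescence in cells given 100 µM DFO for 20 h, using the mouse ldh-a hypoxia-response element, scored as per-plate z-scores; higher means greater loss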
- Reading the numbers: z-score: higher = stronger loss of HIF reporter signal
The screen tested about 21,000 reagents; shown is a random part of those with a known target gene and a result. 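Primary screen; positive scores mean lost reporter signal, so the sign may be inverted from the usual convention.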 A plus sign joins genes that one reagent is predicted to hit.

yata [DRSC15408] → z-score, replicate 1 = -0.3; z-score, replicate 2 = 0.1
dnc [DRSC17758] → z-score, replicate 1 = 1.9; z-score, replicate 2 = 0.2
dnc [DRSC17759] → z-score, replicate 1 = -0.1; z-score, replicate 2 = -0.5
dnc [DRSC17911] → z-score, replicate 1 = -0.2; z-score, replicate 2 = -0.4
dnc [DRSC18763] → z-score, replicate 1 = -0.4; z-score, replicate 2 = -0.8
dnc [DRSC18764] → z-score, replicate 1 = -0.3; z-score, replicate 2 = 0.1
CG13722 [DRSC08331] → z-score, replicate 1 = -0.4; z-score, replicate 2 = -0.1
CG5937 [DRSC18392] → z-score, replicate 1 = -0.3; z-score, replicate 2 = 0.2
Dhc62B [DRSC08655] → z-score, replicate 1 = -0.2; z-score, replicate 2 = -0.3
MagR [DRSC20092] → z-score, replicate 1 = 0; z-score, replicate 2 = -0.2
CG3176 + CR18166 + CG32817 [DRSC17271] → z-score, replicate 1 = -0.1; z-score, replicate 2 = 0.2
CG3176 + CR18166 + CG32817 [DRSC17282] → z-score, replicate 1 = 0.2; z-score, replicate 2 = -0.1
CG3176 + CR18166 + CG32817 [DRSC18288] → z-score, replicate 1 = -0.2; z-score, replicate 2 = -0.3
CG6927 [DRSC18407] → z-score, replicate 1 = 0; z-score, replicate 2 = -0.2
CG34133 [DRSC16319] → z-score, replicate 1 = -0.4; z-score, replicate 2 = -0.4
CG34334 [DRSC20643] → z-score, replicate 1 = 0.5; z-score, replicate 2 = 0.1

Records listed so far whose gene name begins with D or d:
dnc [DRSC17758] → z-score, replicate 1 = 1.9; z-score, replicate 2 = 0.2
dnc [DRSC17759] → z-score, replicate 1 = -0.1; z-score, replicate 2 = -0.5
dnc [DRSC17911] → z-score, replicate 1 = -0.2; z-score, replicate 2 = -0.4
dnc [DRSC18763] → z-score, replicate 1 = -0.4; z-score, replicate 2 = -0.8
dnc [DRSC18764] → z-score, replicate 1 = -0.3; z-score, replicate 2 = 0.1
Dhc62B [DRSC08655] → z-score, replicate 1 = -0.2; z-score, replicate 2 = -0.3
